# PubChem BioAssay AID595 (National Center for Advancing Translational Sciences (NCATS), 2007)
# The campaign covered roughly 71,000 compounds. About 310 (0.44%) were called active. Inconclusive results, whose numbers are uncertain, are shown with a selection of clear calls. The call rests on the fitted dose curve; in most records, active means well fitted curve in either direction with a large enough effect; inconclusive means small, poorly fitted or top-dose-only effect, or another doubt; inactive means flat fitted curve, though single readings scatter. Where the call is inconclusive, the potency comes from a doubtful curve fit.
# Test system: Hsp90 C-terminal peptide / TPR2A (Hop) interaction, human
# Assay: qHTS Assay for Disrupters of an Hsp90 Co-Chaperone Interaction
# Conditions: AlphaScreen TPR2A-His6 binding biotin-Hsp90 C-terminal peptide; activity change, negative = inhibition: at 57 µM (top of the series) unless noted
# On the % scale 0 is the no-effect control and ±100 the full control effect; potency means the concentration at half of the fitted maximal effect.
Structure (SMILES),"activity change, negative = inhibition",Potency
Cc1ccsc1C1CC(=O)NC2=C1C(=O)CC(C)(C)C2 (stereo not drawn),inactive,–
CC(C)NC(=O)c1nc2ccccc2s1,–,"inconclusive: 12.6 µM [inhibitor, partial curve]"
COc1cccc(NC(=O)CSc2nc3ccccc3c(=O)n2CCCC(=O)N2CCCC2)c1,inconclusive: 50.4%,–
Cc1cc(C)nc(/N=C2\NC(=O)CC(C(=O)O)N2CCc2c[nH]c3ccccc23)n1 (stereo not drawn),–,"inconclusive: 31.6 µM [inhibitor, single point]"
COc1nc(-c2ccccc2)cc(-c2ccccc2)n1,–,"inconclusive: 31.6 µM [activator, single point]"
CCC/C=C(\CCC)C(NC(=O)C(C)(C)C)c1ccc(C(=O)OC)cc1 (stereo not drawn),–,"inconclusive: 31.6 µM [activator, single point]"
CCOc1ccc(C2C(C(=O)c3ccco3)=C(O)C(=O)N2Cc2cccnc2)cc1 (stereo not drawn),inconclusive: 41.2%,–
Cc1ccc(-n2c(=O)[nH]c3c(C(N)=O)nc(-c4ccc(C)o4)nc32)cc1,inconclusive: 55.8%,–
CC(C)(C)C(=O)c1sc(Nc2ccccc2)nc1N,inactive,–
CCCN1C2=NCCN2c2ccccc21,inconclusive: 49.5%,–
NC(=O)c1cc2ccc(O)cc2oc1=NCc1ccccc1,inconclusive: 51.8%,–
COCCn1c(SCc2csc(-c3ccccc3)n2)nc2ccccc21,–,"inconclusive: 31.6 µM [activator, single point]"
Oc1c(-c2cc(-c3ccco3)[nH]n2)ccc2ccccc12,–,"inconclusive: 31.6 µM [inhibitor, single point]"
COc1cc(O)c2c(O)c3c(c4c2c1[C@@]1(C4)C(C)=CCCC1(C)C)[C@H](O)[C@@]1(O)CC(=O)C(C(N)=O)=C(O)[C@]1(O)C3=O,inactive: -9.35% [at 11 µM],–
COc1ccccc1NC(=O)C1=C(C)Nc2ncnn2C1c1ccc(C)o1 (stereo not drawn),inconclusive: 32.5%,–
CC(=O)c1ccc2c(c1)N(CCCN(C)C)c1ccccc1S2,inactive,–
CSc1nnc2c3cc(C)ccc3n(Cc3ccccc3)c2n1,inactive,–
COc1cccc(-c2cc(=O)c3ccccc3o2)c1N,inactive,–
CCc1nnc(NC(=O)Cn2nnc(-c3ccccc3F)n2)s1,inactive,–
O=[N+]([O-])c1cc(Cc2cc([N+](=O)[O-])c3cccnc3c2O)c(O)c2ncccc12,–,active: 1.58 µM
CCC(C)O (stereo not drawn),inactive,–
O=S(=O)(Cc1ccc(Cl)cc1)N1CCCC1,inconclusive: 55.2%,–
CC(C)[C@@H](CC(=O)N[C@@H]1CCCC[C@H]1C(=O)N[C@H](CC(=O)N[C@@H](CCC(=O)O)CC(=O)O)Cc1ccccc1)NC(=O)C[C@H](Cc1c[nH]c2ccccc12)NC(=O)[C@@H]1CNCC[C@H]1N,–,"inconclusive: 31.6 µM [inhibitor, single point]"
CC(=O)c1ccc(N2CCN(C(=O)C3CCCN(S(=O)(=O)c4cnc[nH]4)C3)CC2)cc1 (stereo not drawn),inconclusive: 35.1%,–
O=C1CC(c2cccs2)c2cc3c(cc2N1)OCCO3 (stereo not drawn),inconclusive: 23.8%,–
c1ccc(CSc2nnc(-c3cccs3)o2)cc1,–,"inconclusive: 39.8 µM [activator, single point]"

Structure (SMILES),"activity change, negative = inhibition",Potency
CCn1c(=O)cc(SCC(=O)Nc2ccc3c(c2)OCO3)c2ccccc21,inconclusive: 43.2%,–
CCOC(=O)C1CCCN(S(=O)(=O)c2cc(OCC(N)=O)c(C)cc2Cl)C1 (stereo not drawn),inactive,–
Cc1ccc(N2CC(C(=O)NC3=NCCS3)CC2=O)cc1C (stereo not drawn),inconclusive: 27.2%,–
CNC[C@H](O)c1ccc(O)c(O)c1,inactive,–
c1ccc(COn2nnc3ccccc32)c(COn2nnc3ccccc32)c1,inactive,–
Clc1cccc(-c2nnc(SCc3nc4ccccc4[nH]3)n2Cc2ccco2)c1,inactive,–
O=C(NCCCN1CCOCC1)c1ccc(Br)s1,inconclusive: 29.2%,–
COc1ccc(C2/C(=C(\O)c3ccc4c(c3)OCCO4)C(=O)C(=O)N2CCCN(C)C)c(OC)c1 (stereo not drawn),inconclusive: 38.5%,–
CC1CCN(c2oc(-c3cccc4ccccc34)nc2C#N)CC1,inactive,–
O=S(=O)(NCc1cn2ccsc2n1)c1ccc2c(c1)OCCO2,inconclusive: 45.8%,–
O=C(NCc1ccccn1)Nc1cccc(NC(=O)NCc2ccccn2)c1,–,"inconclusive: 20 µM [inhibitor, partial curve]"
CN1C(=O)/C(=C2/C=Cc3ccccc3N2CCCS(=O)(=O)O)SC1=S,–,"inconclusive: 25.1 µM [inhibitor, partial curve]"
Cc1ccc(-n2c3c(cc(C(=O)NCc4ccco4)c2=O)C(=O)CC(C)(C)C3)cc1,inconclusive: 42.4% [at 11 µM],–
CC(=O)/C(C)=N\O,inconclusive: 65.3%,–
O=C(CN1C(=O)c2cccc3cccc1c23)Nc1ccccc1C(=O)NCc1ccco1,–,"inconclusive: 15.8 µM [activator, partial curve]"
Cc1cc(C)c2c(n1)nn1c(N3CCN(c4cccc(Cl)c4)CC3)cc(C)nc21,inconclusive: 49.2%,–
COc1cc(-c2nn3c(-c4ccccc4)nnc3s2)cc(OC)c1OC,inactive,–
CCCCC(=O)Nc1cccc2c1C(=O)N(c1ccccc1)C2=O,–,"inconclusive: 31.6 µM [activator, single point]"
CCOC(=O)Cc1csc(-n2sc3ccccc3c2=O)n1,inactive,–
Oc1ccc2ccccc2c1Cc1c(O)ccc2ccccc12,inconclusive: 81.6% [at 11 µM],–
N#Cc1nc(COc2ccccc2)oc1N1CCC(Cc2ccccc2)CC1,–,"inconclusive: 15.8 µM [inhibitor, partial curve]"
Oc1ccc([C@@H]2CNCCc3c2cc(O)c(O)c3Cl)cc1,–,"inconclusive: 15.8 µM [inhibitor, partial curve]"
c1cc(-c2noc(-c3ccc4c(c3)OCO4)n2)ccn1,inconclusive: 45.4%,–
COc1ccc(NC(=O)C2CCN(c3cc(C)nc(-c4ccccc4)n3)CC2)cc1,inactive,–
CN(C)c1ccnc(SCc2ccccc2Cl)c1C#N,–,"inconclusive: 25.1 µM [activator, single point]"
O=C(Oc1ccccc1)c1cccc(N2C(=O)CCC2=O)c1,inconclusive: 49.6%,–

Structure (SMILES),"activity change, negative = inhibition",Potency
CCCn1cnc2cc(NCc3ccccn3)ccc21,–,"inconclusive: 25.1 µM [inhibitor, partial curve]"
O=C1c2ccccc2C(=O)c2c(NC3CCCCC3)ccc(Nc3ccc(S(=O)(=O)O)cc3)c21,–,active: 3.98 µM
COCCNC(=O)CC(NS(=O)(=O)c1ccc(C)cc1)c1ccco1 (stereo not drawn),inconclusive: 38.2%,–
Cn1c(=O)c2[nH]c([C@@H]3CC(=O)C[C@H](c4nc5c([nH]4)c(=O)n(C)c(=O)n5C)N3)nc2n(C)c1=O,inactive: -11.4% [at 11 µM],–
COc1c(C(=O)N2CCCC2)ccc2ccccc12,inconclusive: 49.9%,–
COc1ccc2c(c1)C(=O)CC(c1ccccc1F)O2 (stereo not drawn),–,"inconclusive: 31.6 µM [activator, single point]"
CCCNC(=O)Cc1cc(=O)[nH]c(=O)[nH]1,inactive,–
COCc1[nH]nc2c1C(c1ccc(OC)c(OC)c1)C(C#N)=C(N)O2 (stereo not drawn),inconclusive: 40.9%,–
CN1CCN(c2nc(-c3ccc(N(C)C)cc3)nc3ccccc23)CC1,inconclusive: 72.8%,–
CC(C)N1CC(C(=O)Nc2ccc(Br)c(Cl)c2)CC1=O (stereo not drawn),inconclusive: 49.8%,–
COC(=O)[C@@]1(Cc2ccc(OC)cc2)[C@H]2c3cc(C(=O)N(C)C)n(Cc4ccc(S(C)(=O)=O)cc4)c3C[C@H]2CN1C(=O)c1ccccc1,inconclusive: 48%,–
CCC/C=C(\CCC)C(NC(=O)CCc1ccccc1)c1ccc(C(F)(F)F)cc1 (stereo not drawn),–,"inconclusive: 15.8 µM [activator, partial curve]"
O=C1c2ccccc2C(=O)N1CCCSc1nc2ccccc2o1,–,"inconclusive: 6.31 µM [activator, single point]"
COc1ccccc1OCc1ccc(C(=O)NCc2ccco2)o1,inconclusive: 41.1%,–
CCOC(=O)C1=C(C)NC(SCC(=O)OC)=C(C#N)C1c1ccc(C(=O)OC)cc1 (stereo not drawn),–,"inconclusive: 25.1 µM [activator, single point]"
O=C(CCCn1c(=O)c2ccccc2n(CC(=O)NCc2ccco2)c1=O)NCc1ccco1,–,"inconclusive: 39.8 µM [inhibitor, single point]"
Cc1cc(C(=O)Nc2cccc(C(=O)O)c2)oc1C,inactive,–
COc1ccccc1Nc1nc(N)nc(CSc2nc(C)cc(C)n2)n1,inconclusive: -109%,–
Cc1ccc(Cn2ncc3c(N4CCN(c5ccccc5C)CC4)ncnc32)cc1,–,"inconclusive: 39.8 µM [activator, single point]"
COc1ccc(-c2nc(-c3ccccc3)no2)c(OC)c1,–,"inconclusive: 25.1 µM [activator, single point]"
CCN(CC)C(=O)CSc1nnc(-c2ccccn2)n1-c1ccc(C)c(C)c1,–,"inconclusive: 39.8 µM [inhibitor, single point]"
CC(C)COC(=O)NCC12C=CC(O1)C1C(=O)N(c3ccc(Cl)cc3)C(=O)C12 (stereo not drawn),inactive,–
COc1ccc(-c2noc(COc3ccc(C)c(C)c3)n2)cc1OC,–,"inconclusive: 31.6 µM [activator, single point]"
CC1CCC(C(=O)O)([C@H](Br)C(=O)O)CC1 (stereo partly drawn),inactive: -2.25% [at 11 µM],–
Cn1c(Cn2c(=O)sc3ccccc32)nnc1SCC(=O)Nc1cccc(Cl)c1,inconclusive: 42.4% [at 2.3 µM],–
COC(=O)[C@@]1(Cc2ccc(OC)cc2)[C@H]2c3cc(C(=O)N4CCCC4)n(CCc4ccc(OC)c(Br)c4)c3C[C@H]2CN1C(=O)c1ccccc1,inactive,–

# Laid out differently: entries from further up
Structure (SMILES) | activity change, negative = inhibition | Potency
CC(=O)c1ccc2c(c1)N(CCCN(C)C)c1ccccc1S2 | inactive | –
CSc1nnc2c3cc(C)ccc3n(Cc3ccccc3)c2n1 | inactive | –
COc1cccc(-c2cc(=O)c3ccccc3o2)c1N | inactive | –
CCc1nnc(NC(=O)Cn2nnc(-c3ccccc3F)n2)s1 | inactive | –

# Random excerpt: 2 records from the list.
Structure (SMILES),"activity change, negative = inhibition",Potency
CC(C)COC(=O)NCC12C=CC(O1)C1C(=O)N(c3ccc(Cl)cc3)C(=O)C12 (stereo not drawn),inactive,–
Cc1ccc(Cn2ncc3c(N4CCN(c5ccccc5C)CC4)ncnc32)cc1,–,"inconclusive: 39.8 µM [activator, single point]"
